This assay addresses T1, MAGNESIUM-PROTOPORPHYRIN IX METHYL … (MgPMT), BiFC fusion (UniProt Q9SW18).
T1 sequence: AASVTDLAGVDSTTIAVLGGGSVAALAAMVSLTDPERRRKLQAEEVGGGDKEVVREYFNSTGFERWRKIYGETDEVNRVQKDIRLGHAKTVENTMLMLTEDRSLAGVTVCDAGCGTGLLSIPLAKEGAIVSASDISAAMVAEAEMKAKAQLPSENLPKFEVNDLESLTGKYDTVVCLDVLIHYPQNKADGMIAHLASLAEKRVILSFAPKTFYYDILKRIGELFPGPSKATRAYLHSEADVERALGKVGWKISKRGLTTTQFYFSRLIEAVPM
Nature of the assay: split reporter; nYFP and cYFP fusions expressed in N. benthamiana leaves by agroinfiltration; YFP signals examined by CLSM in protoplasts.

Results are given in words; binding and its absence hold for the method and conditions named. Binding seen in cells or lysates may run through a third protein. Where a sequence is shown, tags or fusion partners need not be part of it.

B1: CPP1, BiFC fusion (nYFP or cYFP) (protein, UniProt Q9FN50 49-258)
chain: TVDSSYGGNVPTFPRTRVWDPYKRLGVSPYASEEEIWASRNFLLQQYAGHERSEESIEGAFEKLLMSSFIRRKKTKINLKSKLKKKVEESPPWLKALLDFVEMPPMDTIFRRLFLFAFMGGWSIMNSAEGGPAFQVAVSLAACVYFLNEKTKSLGRACLIGIGALVAGWFCGSLIIPMIPTFLIQPTWTLELLTSLVAYVFLFLSCTFLK
Consider B1, for which the binding result is on record as “no binding”.

For the origin of these results see paper PMC8263706.
